Measurements from paper PMC7883825.
No constants are given. Whether binding was seen depends on the method and setting. Binding seen in cells or lysates may run through a third protein. Some binding calls cover weakened binding; strength is not graded here.

Sequences of proteins named here, by UniProt entry; tags and fusion partners are left off.
UniProt Q9UIV1: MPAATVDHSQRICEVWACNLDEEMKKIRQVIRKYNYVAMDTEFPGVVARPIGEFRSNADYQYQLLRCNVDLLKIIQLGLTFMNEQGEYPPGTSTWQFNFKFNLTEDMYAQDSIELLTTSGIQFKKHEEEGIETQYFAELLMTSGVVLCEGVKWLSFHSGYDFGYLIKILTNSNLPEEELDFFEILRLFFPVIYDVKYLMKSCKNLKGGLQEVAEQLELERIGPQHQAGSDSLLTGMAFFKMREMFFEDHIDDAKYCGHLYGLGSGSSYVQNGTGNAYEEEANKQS

Tests used:
[1] = target: T1, RNF219 (endogenous) (human (endogenous in HEK-293)) (UniProt Q5W0B1); assay: co-IP; endogenous co-IP from HEK-293 cells with antibody to RNF219 or CNOT7 and protein A beads, 300 mM NaCl, overnight at 4°C
T1 sequence: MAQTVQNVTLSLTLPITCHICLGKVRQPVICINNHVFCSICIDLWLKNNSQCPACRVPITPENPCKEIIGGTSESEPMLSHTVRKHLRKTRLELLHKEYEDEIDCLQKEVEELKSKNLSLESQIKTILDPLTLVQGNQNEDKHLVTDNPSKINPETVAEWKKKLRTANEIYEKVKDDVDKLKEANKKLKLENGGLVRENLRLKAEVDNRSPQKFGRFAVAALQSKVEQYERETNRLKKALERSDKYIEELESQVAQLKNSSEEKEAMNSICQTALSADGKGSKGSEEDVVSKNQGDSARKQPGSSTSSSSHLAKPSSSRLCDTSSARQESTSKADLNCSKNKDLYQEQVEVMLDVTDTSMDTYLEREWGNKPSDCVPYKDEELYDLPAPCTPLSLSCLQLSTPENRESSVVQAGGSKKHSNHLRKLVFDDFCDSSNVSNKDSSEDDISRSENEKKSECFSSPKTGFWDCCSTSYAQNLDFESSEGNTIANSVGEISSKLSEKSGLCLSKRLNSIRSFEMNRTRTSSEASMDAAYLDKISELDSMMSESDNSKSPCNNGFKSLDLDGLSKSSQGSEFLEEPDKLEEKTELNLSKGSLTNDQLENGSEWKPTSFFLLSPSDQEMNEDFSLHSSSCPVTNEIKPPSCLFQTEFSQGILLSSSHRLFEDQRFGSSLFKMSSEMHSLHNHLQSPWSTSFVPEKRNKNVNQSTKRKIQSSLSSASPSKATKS

[2] = target: CNOT7 (human (endogenous in HEK-293)) (UniProt Q9UIV1); assay: as above

CNOT7 (from UniProt Q9UIV1 1-285)
binding [1]: binds

B1: RNF219 (endogenous) (protein, UniProt Q5W0B1 1-726)
chain: MAQTVQNVTLSLTLPITCHICLGKVRQPVICINNHVFCSICIDLWLKNNSQCPACRVPITPENPCKEIIGGTSESEPMLSHTVRKHLRKTRLELLHKEYEDEIDCLQKEVEELKSKNLSLESQIKTILDPLTLVQGNQNEDKHLVTDNPSKINPETVAEWKKKLRTANEIYEKVKDDVDKLKEANKKLKLENGGLVRENLRLKAEVDNRSPQKFGRFAVAALQSKVEQYERETNRLKKALERSDKYIEELESQVAQLKNSSEEKEAMNSICQTALSADGKGSKGSEEDVVSKNQGDSARKQPGSSTSSSSHLAKPSSSRLCDTSSARQESTSKADLNCSKNKDLYQEQVEVMLDVTDTSMDTYLEREWGNKPSDCVPYKDEELYDLPAPCTPLSLSCLQLSTPENRESSVVQAGGSKKHSNHLRKLVFDDFCDSSNVSNKDSSEDDISRSENEKKSECFSSPKTGFWDCCSTSYAQNLDFESSEGNTIANSVGEISSKLSEKSGLCLSKRLNSIRSFEMNRTRTSSEASMDAAYLDKISELDSMMSESDNSKSPCNNGFKSLDLDGLSKSSQGSEFLEEPDKLEEKTELNLSKGSLTNDQLENGSEWKPTSFFLLSPSDQEMNEDFSLHSSSCPVTNEIKPPSCLFQTEFSQGILLSSSHRLFEDQRFGSSLFKMSSEMHSLHNHLQSPWSTSFVPEKRNKNVNQSTKRKIQSSLSSASPSKATKS
binding [2]: binds
